Experimental data: PubChem BioAssay AID296 (DTP/NCI, 2004)
The list does not hold the whole screen: it gathers tests that were run many times, whatever their T/C, doses with no T/C, and many T/C values between a quarter and a half above the control. Other doses and runs of a compound stand elsewhere. T/C: endpoint of the treated group in % of that of the vehicle group. Schedules are NCI's codes, taken here to give the interval after Q, in days (D) or hours (H), and the number of doses after X. Some entries give survivors of the animals treated and no T/C: the source holds a T/C of zero for them, seemingly a mark for toxic or unscored doses. Counts of survivors are from the toxicity check (mostly the fifth day) where no day follows; animals may have died later. Some entries hold several experiments; their values stand side by side, smallest first.

Test system: MX-1 breast xenograft, nude mice, tumor weight T/C
Experiment: NCI In Vivo Anticancer Drug Screen. Data for tumor model Human Mammary Carcinoma MX-1 Xenograft (intrarenal inoculation) in NU/NU Swiss (nude) mice
Conditions: T/C endpoint: mean tumor weight change, higher T/C = larger tumour; for T/C: evaluated on day 11
How it was run: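 Read-out: treated (T) over vehicle control (C) ratio of survival or tumor size. Dosing in animals carrying the transplanted tumor.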

[1] = dose: 2400.0 mg/kg/injection, schedule: Q04DX003 (sc), vehicle: saline
[2] = dose: 37.5 mg/kg/injection, schedule: Q04DX003 (sc), vehicle: suspension in saline
[3] = dose: 75.0 mg/kg/injection, schedule: Q04DX003 (sc), vehicle: suspension in saline
[4] = dose: 150.0 mg/kg/injection, schedule: Q04DX003 (sc), vehicle: suspension in saline

SMILES: O=C1N[C@@H]([C@H]2CC[C@H](Cl)CN2)C(=O)N[C@H]1[C@H]1CC[C@H](Cl)CN1
- survivor count (dose: 10.0 mg/kg/injection, schedule: Q01DX010 (sc), vehicle: water): 0 of 3 on day 11

SMILES: CNC(=O)OCc1nc(SC)n(C)c1COC(=O)NC
- survivor count (dose: 400.0 mg/kg/injection, schedule: Q04DX003 (ip), vehicle: saline): 1 of 6 on day 11

SMILES: CC(=O)OCC1OC(n2ccc(N)nc2=O)C(OC(C)=O)C1OC(C)=O (stereo unspecified)
- survivor count [1]: 3 of 6 on day 11

SMILES: Cc1ccccc1CN1C2=NCCN2C(=O)C2=C1CCN(S(=O)(=O)c1ccc(Cl)c(S(N)(=O)=O)c1)C2
- T/C (dose: 150.0 mg/kg/injection, schedule: Q04DX003 (sc), vehicle: saline): 137 % of control

SMILES: O=CC(O)C(O)C(O)C(O)C(=O)O.[NH-]C1CCCCC1[NH-].[Pt+2] (stereo unspecified)
- survivor count [2]: 3 of 6 on day 11
- survivor count [3]: 0 of 6 on day 11

SMILES: CC(=O)C1(O)Cc2c(O)c3c(c(O)c2C(OC2CC(N)C(O)C(C)O2)C1)C(=O)c1ccccc1C3=O (stereo unspecified)
- survivor count (dose: 2.0 mg/kg/injection, schedule: Q04DX003 (sc), vehicle: water): 3 of 6 on day 11
- survivor count (dose: 4.0 mg/kg/injection, schedule: Q04DX003 (sc), vehicle: water): 0 of 6 on day 11

SMILES: [CH3][Sn]([CH3])([Cl])[S]CCN
- T/C [2]: 143 % of control
- survivor count [4]: 0 of 6 on day 11

SMILES: COC(=O)C(N)Cc1ccc(O)c(O)c1 (stereo unspecified)
- survivor count [1]: 2 of 5 on day 11

SMILES: COc1ccc(S(=O)(=O)N/N=C/C(=O)O)cc1
- survivor count (dose: 200.0 mg/kg/injection, schedule: Q01DX010 (sc), vehicle: saline with Tween-80): 1 of 6 on day 11 and 1 of 5 on day 11

SMILES: S=c1[nH]cc2cnccn12
- T/C (dose: 2400.0 mg/kg/injection, schedule: Q04DX003 (sc), vehicle: saline with Tween-80): 147 % of control

SMILES: OCCOCC(F)(F)F
- T/C (dose: 600.0 mg/kg/injection, schedule: Q04DX003 (sc), vehicle: saline): 146 % of control

SMILES: CC[As](=O)(O)CC
- T/C (dose: 50.0 mg/kg/injection, schedule: Q04DX003 (sc), vehicle: saline): 129 % of control
- survivor count (dose: 400.0 mg/kg/injection, schedule: Q04DX003 (sc), vehicle: saline): 1 of 6 on day 11

SMILES: O=C(NP(=O)(N1CC1)N1CC1)c1cc(I)ccc1I
- survivor count [3]: 3 of 6 on day 11
- survivor count [4]: 2 of 5 on day 11
- survivor count (dose: 600.0 mg/kg/injection, schedule: Q04DX003 (sc), vehicle: suspension in saline): 0 of 6 on day 11

SMILES: CN1CCN(Cc2nc3cccc4c3c([n+]2[O-])-c2ccccc2-4)CC1
- survivor count (dose: 25.0 mg/kg/injection, schedule: Q01DX010 (sc), vehicle: saline with Tween-80): 1 of 2 on day 11

SMILES: CCCNC1=C(C)C(=O)C2=C(C1=O)[C@H](COC(N)=O)[C@]1(OC)[C@@H]3N[C@@H]3CN21
- survivor count (dose: 24.0 mg/kg/injection, schedule: Q04DX003 (sc), vehicle: suspension in saline): 0 of 6 on day 11
- survivor count (dose: 48.0 mg/kg/injection, schedule: Q04DX003 (sc), vehicle: suspension in saline): 0 of 6 on day 11

SMILES: C[PH+](C)C.C[PH+](C)C.[Au]
- survivor count (dose: 40.0 mg/kg/injection, schedule: Q04DX003 (sc), vehicle: suspension in saline): 2 of 6 on day 11

SMILES: O=C(O)CSc1c(Cl)c(=O)oc2ccc(Cl)cc12
- survivor count (dose: 900.0 mg/kg/injection, schedule: Q04DX003 (sc), vehicle: Klucel (hydroxypropylcellulose) (HPC)): 1 of 6 on day 11 and 2 of 6 on day 11
- survivor count (dose: 1200.0 mg/kg/injection, schedule: Q04DX003 (sc), vehicle: Klucel (hydroxypropylcellulose) (HPC)): 1 of 6 on day 11
- survivor count (dose: 1800.0 mg/kg/injection, schedule: Q04DX003 (sc), vehicle: Klucel (hydroxypropylcellulose) (HPC)): 1 of 6 on day 11
